Numbering of substitutions follows the chain as printed. These are yes or no findings as the source states them, for the method shown. Some entries that bind do so weakly or less than the wild type. For some assays here: Where a sequence is shown, tags or fusion partners need not be part of it.

The chains behind the UniProt entries cited, without tags or fusion partners. Where a name states a change or a piece, a line headed by the entry shows the natural chain unless it says otherwise. Residues count along the entry.
UniProt Q99988, residues 197-308: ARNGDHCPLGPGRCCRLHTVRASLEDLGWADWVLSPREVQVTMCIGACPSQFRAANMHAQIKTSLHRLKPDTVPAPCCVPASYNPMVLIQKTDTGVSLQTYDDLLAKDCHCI
UniProt Q9Z0J7: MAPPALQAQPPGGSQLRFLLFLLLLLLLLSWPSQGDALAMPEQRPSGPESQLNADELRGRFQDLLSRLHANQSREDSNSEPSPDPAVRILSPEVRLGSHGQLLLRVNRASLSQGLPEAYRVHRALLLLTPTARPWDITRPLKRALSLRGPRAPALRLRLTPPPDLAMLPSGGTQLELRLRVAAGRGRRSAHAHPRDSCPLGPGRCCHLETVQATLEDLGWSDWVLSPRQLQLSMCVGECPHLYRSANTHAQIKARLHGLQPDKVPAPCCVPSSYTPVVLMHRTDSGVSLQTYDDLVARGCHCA

The labels stand for the following.
T1: fusion protein comprising the extracellular region of monkey GDF15 protein and human IgG1-FC (monkey (cyno); human) (UniProt G7PWZ3)
T1 sequence (looked up): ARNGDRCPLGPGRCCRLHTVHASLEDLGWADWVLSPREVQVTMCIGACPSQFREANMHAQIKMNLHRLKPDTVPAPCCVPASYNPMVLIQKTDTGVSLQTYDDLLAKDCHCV

T2: fusion protein comprising the extracellular region of human GDF15 protein and human IgG1-FC (human) (UniProt Q99988)
T2 sequence (looked up): T1 sequence (looked up) with R6H, H21R, E54A, M63T, N64S, V112I

T3: cynoGDF15-mFC (monkey (cyno); mouse) (UniProt G7PWZ3+Q9Z0J7)
T3 sequence (looked up): T1 sequence (looked up)

B1: A3 (murine anti-34G9) (antibody, V domains shown)
VH: QVQLKESGPGILQPSQTLSLTCSFSGFSLNTAGMTVGWIRQPSGKGLEWLAHIWWNDDKYYNPALKSRLTISKDTSNNQIFLEIASVVTADTATYYCTRIATMNYAMDYWGQGTSVTVSS
VL: DIVMTQAPASLAVSLGQRATISCRASQSVSTSSFSYMHWYQQKPGQPPKLLIKYASNLESGVPARFSGSGSGTDFTLNIHPVEEEDTATYYCQHSWEIPYTFGGGTKLEIK
B2: A6 (murine anti-53D10) (antibody, V domains shown)
VH: QVTLKESGPGIVQPSQPFRLTCTFSGFSLSTSGIGITWIRQPSGKGLEWLATIWWDDDNRYNPSLKSRLTVSKDTSNNQAFLNIITVETADTAIYYCVQSAWDWFAYWGQGTLVTVSA
VL: DIVMTQSQKFMSTSVGDRVSVTCKASQNVGTNVAWYQQKSGQSPKALIYSASYRNSGVPDRFTGSGSGTDFTLTISNVESEDLAEYFCQQYNSHPVTFGGGTKLEIK
B3: A5 (murine anti-50G3) (antibody, V domains shown)
VH: QVTLKESGPGILKPSQTLSLTCSFSGFSLSTSGMGVGWIRQPSGKGLEWLAHIWWNDDKYYNPSLKSHLTISKDTSRNQVFLMITSVDTADTATYYCARGAYDFFDYWGQGTTLTVSS
VL: DIVMTQAQNFMSTSVGDRVSVTCKASQNVDTNVAWYQQKPGQSPKALIYSASYRYSGVPDRFTGSGSGTDFTLTISNVQSDDLADYFCQQYNTYPYTFGGGTKLEIK
B4: A4 (murine anti-2A2) (antibody, V domains shown)
VH: QVTLKESGPGILQPSQTLSLTCSFSGFSLTTSGMGVDWIRQSSGKGLEWLAHIYWDDDKRYNPSLKSRLTISKDTSSNQVFLKITSVDTADTATYYCARRAWDAMDYWGQGTSFTVSS
VL: B3 VL with N9K, S26R, D30G, D81E, D85E, T93S
B5: A1 (murine anti-53E5) (antibody, V domains shown)
VH: QVQLKESGPGILQPSQTLSLTCSFSGFSLSTSGMGVGWIRQPSGKGLEWLAHILWDDVKRYNPALKSRLTISKDSSNSQIFLKIASVDTADTATYYCVQMAWDWFAYWGQGTLVTVSA
VL: DIVMTQAQKFMSTSVEDRVSVTCKASQNVDTNVAWYQQKPGQSPKALIYSASYRSSGVPDRFTGSGSGTDFTLTISNVQSEDLAEYFCQQYHSYPTFGGGTKLEIK
B6: A2 (murine anti-53A8) (antibody, V domains shown)
VH: B5 VH with L54R, S75T, N77S, V98A
VL: B5 VL with E16G, N32D, S55Y, S76T, Q89H, H92N
B7: 53E5(hz) (antibody, human IgG1, kappa, V domains shown)
VH: QVQLQESGPGLVKPSETLSLTCTFSGFSLSTSGMGVGWIRQPPGKGLEWLAHILWDDVKRYNPALKSRLTISKDSSKSQISLKLSSVTAADTAVYYCVQMAWDWFAYWGQGTTVTVSS
VL: DIQMTQSPSSLSASVGDRVTITCKASQNVDTNVAWYQQKPGQSPKALIYSASYRSSGVPSRFSGSGSGTDFTLTISSLQPEDFATYYCQQYHSYPTFGQGTRLEIKR
B8: 53A8(hz) (antibody, human IgG1, kappa, V domains shown)
VH: B7 VH with L54R, S75T, V98A
VL: B7 VL with N32D, S55Y, Q89H, H92N

The target in one assay is T1, fusion protein comprising the extracellular region of monkey GDF15 protein and human IgG1-FC (monkey (cyno); human). Nature of the assay: ELISA (figure legend).
For B1, the binding result is recorded as “binds”. Still for that read-out and setting: to B2 belongs “binds”; to B3, “binds”; to B4, “binds”. On the same count and under the same terms, to B5 belongs “binds”. Regarding B6, the binding result is recorded as “binds”.

For another assay, the target named is T2, fusion protein comprising the extracellular region of human GDF15 protein and human IgG1-FC (human). Nature of the assay: ELISA (figure legend).
In the case of B1, the binding entry is “binds”. For the molecule B2, the binding result is listed as “binds”.

Regarding B3, the binding result is reported as “binds”.

In the case of B4, the binding result is “binds”. Same read-out and setting: the result for B5 reads “binds”; that for B6, “binds”.

Another assay concerns the target T3, cynoGDF15-mFC (monkey (cyno); mouse). Put plainly: ELISA (figure legend).
Consider B7, for which the binding entry is on record as “binds”.

On to B8, for which the binding result is recorded as “binds”.

The values are drawn from patent publication US20250092124A1.
